# Experimental data from paper PMC10639050, “ZNF432 stimulates PARylation and inhibits DNA resection to balance PARPi sensitivity and resistance”.
# Protein sequences, listed by entry. Tags and fused reporters are not part of them. Lines headed by an entry give the natural chain unless they say otherwise; changes in a name come on top.
# UniProt O94892: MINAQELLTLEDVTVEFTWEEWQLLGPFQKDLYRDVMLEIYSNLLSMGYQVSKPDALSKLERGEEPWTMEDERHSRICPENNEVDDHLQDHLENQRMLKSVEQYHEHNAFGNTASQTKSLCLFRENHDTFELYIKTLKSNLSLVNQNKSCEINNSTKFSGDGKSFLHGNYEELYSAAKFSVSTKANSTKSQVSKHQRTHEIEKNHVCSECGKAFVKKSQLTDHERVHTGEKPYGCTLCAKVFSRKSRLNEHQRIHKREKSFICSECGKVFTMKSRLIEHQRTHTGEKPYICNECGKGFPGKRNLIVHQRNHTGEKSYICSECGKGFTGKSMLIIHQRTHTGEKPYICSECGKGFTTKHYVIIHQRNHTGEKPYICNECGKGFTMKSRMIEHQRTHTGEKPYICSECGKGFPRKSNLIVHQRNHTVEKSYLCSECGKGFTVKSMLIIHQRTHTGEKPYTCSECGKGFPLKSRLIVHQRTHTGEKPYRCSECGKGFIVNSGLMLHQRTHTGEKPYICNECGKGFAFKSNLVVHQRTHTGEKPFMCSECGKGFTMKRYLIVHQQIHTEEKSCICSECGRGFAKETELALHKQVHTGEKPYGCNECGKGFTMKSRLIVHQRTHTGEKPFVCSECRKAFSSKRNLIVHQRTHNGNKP
# The comparison behind a weaker result is the experiment's own reference, which may not be listed here.
# Key:
# [1] = target: ZNF432 full-length (Homo sapiens) (UniProt O94892); assay: competition with a labelled probe; conditions: dsDNA in competition with labeled ssDNA probe, ssDNA preferred, glutaraldehyde fixation; 25 mM MOPS pH 7.0, 60 mM KCl, 0.2% Tween, 2 mM DTT; 1 mM without fixation for Kd), 37 C 30 min; recombinant protein; residues 1-652; protein details: C-terminal 10xHis (GST removed with PreScission); label: 32P (gamma-32P)
# [2] = target: ZNF432 full-length (Homo sapiens) (UniProt O94892); assay: EMSA; conditions: glutaraldehyde fixation, binds, but less strongly than ssDNA; 25 mM MOPS pH 7.0, 60 mM KCl, 0.2% Tween, 2 mM DTT; 1 mM without fixation for Kd), 37 C 30 min; recombinant protein; residues 1-652; protein details: C-terminal 10xHis (GST removed with PreScission); label: 32P (gamma-32P)
sequence,measurement,setting,value
GGGCGAATTGGGCCCGACGTCGCATGCTCCTCTAGACTCGAGGAATTCGGTACCCCGGGTTCGAAATCGATAAGCTTACAGTCTCCATTTAAAGGACAAG (double strand) [Double-stranded DNA],binding result,[1],binds more weakly
same,binding result,[2],binds more weakly
